# Measured values from patent publication US9096829B2, “Human mast cell line and uses thereof” (UNIVERSITY OF SOUTH FLORIDA, priority 2009, dated 2015).
# Some results were stated once for a whole list of compounds, not compound by compound.
# Experiments:
# LAD2 cells = assay: Leukotriene C4 release (ELISA) from LAD2 mast cells; format: cell-based, human; conditions: at 6 hr
# Method: (§1) TNF-a (R&G Systems), IL-17 (eBioscience), and Leukotrine C4 (Cayman Chemical) protein concentrations in mast cell supernatants were determined using ELISA kits from each respective manufacturer. Each ELISA was performed according to the manufacturer's instructions.
# USF-MC1 cells = assay: Leukotriene C4 release (ELISA) from USF-MC1 mast cells; format: cell-based, human; conditions: at 6 hr
# Method: as §1
smiles,measurement,setting,value
C[C@H](CCC(=O)O)C[C@H](C)C[C@H](C)C(=O)/C=C(\O)[C@H](C)C[C@H](C)C/C=C/[C@@H](C)[C@@H](O)[C@@H](C)[C@@H](O)C[C@@H]1CC[C@@](C)([C@H]2CC[C@@](C)([C@@H](C)O)O2)O1 [ionomycin],increase in LTC4 release induced by challenge,LAD2 cells,5-15 fold
same,increase in LTC4 release induced by challenge,USF-MC1 cells,5-15 fold
